Data published in patent US20090074747A1 (IRM, published 2009).
No constants are given. Whether binding was seen depends on the method and setting. A result given as binding can be weak or reduced; the word gives no strength.

Biological target: cynomolgus TSLPR (cynomolgus)
Experiment: ELISA, plate coated with cTSLPR

B1: NV164-1-IgG1 (antibody, V domains shown)
VH: QVQLVQSGSELKKPGASVKVSCKASGYTFTSYGMSWVRQAPGQGLEWMGWVNTNTGNPRYAQGFTGRFVFSLDTSVSTAYLQISSLKAEDTAVYYCAREGFIRTVVGAAGRFVYWGQGTLVTVSS
VL: DIQMTQSPSSLSASVGDRVTITCRASQDIHTRLAWYQQKPGKAPKLLIYWASTLQSGVPSRFSGSGSGTDFTLTISSLQPEDFATYYCQQYSAYPTFGQGTKLEIKG
For B1, the binding was “binds”.
